The nature of this assay: qHTS Assay for Lipid Storage Modulators in Drosophila S3 Cells.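 On cell number change: cells counted by Cell Tracker Red CMTPX staining in the red channel.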 To be noted: BODIPY lipid droplet fluorescence, 18-24 h; for cell number change: measured here: cell count max response, cells fed with added oleic acid. The essentials: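 Laser-scanning cytometry quantifies lipid droplet accumulation (500–530 nm total intensity; droplet/cell object ratio) in oleic acid-fed (400 uM added) Drosophila S3 cells treated with a concentration series. 20 uM Triacsin C defined 100% inhibition.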
(In general: In qHTS, concentration-response curves come from the screen itself.)

Setting [1] is: measured here: lipid fluorescence (Fed channel) AC50, cells fed with added oleic acid.
[2] abbreviates: measured here: cell number channel AC50, cells fed with added oleic acid.

This is an account of results in PubChem BioAssay AID2685 (National Center for Advancing Translational Sciences (NCATS), 2010).

The list shows a part of the results. These are further read-outs of the screen, such as a control signal, another cell line or another target. No call is given for them. The list favours compounds with an active or inconclusive main result. Potencies come from curve fits of mixed quality, noted in brackets.

With `O=[N+]([O-])c1ccccc1CNC1CCCCCC1`, the cell number change is -2.53%.

On to `COc1ccc(CC(=O)NC2CCN(Cc3nnnn3C(C)(C)C)CC2)cc1OC`, for which the AC50 (in general, the midpoint of the concentration-response curve, whichever way the signal moves) under setting [1] is 16.4 µM [falling, partial curve, poor fit].

Take `CC(=O)Oc1ccc(C(=O)NCc2ccco2)cc1`: the cell number change amounted to 15.6%. For the same compound, the AC50 under setting [1] was 29.1 µM [rising, single point].

Consider `O=C(CSc1nccc(-c2cccs2)n1)Nc1ccccc1`, for which the AC50 under setting [1] is 6.51 µM [falling, single point].

With `COc1ccc(Cl)cc1NC(=O)COc1cccc(-n2cnnn2)c1`, the cell number change was -159%.

In the case of `O=c1oc(-c2cccs2)nc2c1cnn2-c1ccccc1`, the cell number change was determined as 37.9%. For the same compound, under setting [2], the AC50 is 20.6 µM [rising, single point]. Moreover, the AC50 under setting [1] was 0.146 µM [falling, full curve, poor fit].

As to `Cc1ccc(N(CC(=O)NCC2CCCO2)C(=O)CCC(=O)Nc2nccs2)cc1` (stereo unspecified), the cell number change is 8.7%. Also, the AC50 under setting [1] is 0.58 µM [rising, single point].

For `CCOC(=O)N1CCN(C(=O)c2ccc(C)c(S(=O)(=O)N3CCCCC3)c2)CC1`, the cell number change is -30.2%. Also, the AC50 under setting [2] is 29.1 µM [falling, single point].

Turning to `COc1ccccc1NS(=O)(=O)c1ccc(C(=O)N2CCCCCCC2)cc1`, the cell number change is -6.61%. The half-maximal activity concentration (AC50) under setting [1] was 0.517 µM [rising, full curve, poor fit].

With `Cn1cc(C(=O)c2cccc(Cl)c2Cl)cc1C#N`, the cell number change was -29.2%. The AC50 under setting [1] is 29.1 µM [falling, single point].

In the case of `C[C@H]1CNC(=O)C(=O)N1C[C@H](Cc1ccc(O)cc1)NC(=O)CC12CC3CC(CC(C3)C1)C2`, the cell number change was found to be 18.9%. Under setting [2], the half-maximal activity concentration (AC50) was 4.61 µM [rising, partial curve]. Besides, the AC50 under setting [1] is 6.51 µM [rising, partial curve, poor fit].

`Cc1c(C)c2c(OCC(=O)N[C@@H](C(=O)O)c3ccccc3)cc3c(c2oc1=O)CCC(C)(C)O3`: the cell number change is 6.8%. The AC50 under setting [1] was 5.8 µM [rising, partial curve, poor fit].

In the case of `CC1(C)Cc2c(ccc3ccccc23)C(NNC(=O)c2cccnc2)=N1`, the cell number change is 25.7%. Moreover, the half-maximal activity concentration (AC50) under setting [1] is 11.6 µM [rising, partial curve, poor fit].

As for `CC1/C(=N/O)CC(c2ccco2)NC1c1ccco1` (stereo unspecified), the cell number change amounted to 14.5%. Moreover, the AC50 under setting [2] is 1.64 µM [rising, partial curve].

Regarding `O=C(Nc1ccccc1N1CCN(C(=O)c2ccc(Cl)cc2)CC1)c1ccc2c(c1)OCO2`, the cell number change was determined as 58.7%. Besides, under setting [2], the concentration at half-maximal activity (AC50) is 0.517 µM [rising, full curve]. The concentration at half-maximal activity (AC50) under setting [1] is 0.461 µM [rising, full curve].

For the compound `O=C(Nc1ccc(F)c(Cl)c1)C1CC(=O)n2c(nc3ccccc32)N1` (stereo unspecified), the cell number change was -40.2%. Moreover, under setting [2], the AC50 is 29.1 µM [falling, single point].

For the compound `O=[N+]([O-])c1ccc(OCn2cncn2)cc1`, the cell number change turned out to be 4.03%. In addition, the AC50 under setting [2] is 0.103 µM [falling, full curve, poor fit]. Also, the AC50 under setting [1] is 0.092 µM [falling, full curve, poor fit].

As for `Cc1cc(=O)[nH]c(/N=C(\N)Nc2ccc3c(c2)OCCO3)n1`, the cell number change is 86.4%. In addition, under setting [2], the AC50 was 3.26 µM [rising, full curve].

Consider `CC(Sc1c[nH]c2ccccc12)C(=O)O` (stereo unspecified), for which the cell number change is 10.6%. In addition, under setting [1], the AC50 was 0.731 µM [rising, full curve, poor fit].

As for `CC(=O)c1ccc(OC(=O)N(c2ccccc2)c2ccccc2)cc1`, the cell number change is 53.2%. The half-maximal activity concentration (AC50) under setting [2] was 20.6 µM [rising, single point]. Further, the AC50 under setting [1] is 16.4 µM [rising, partial curve].

On to `O=C(NCc1ccco1)C1CCCN(S(=O)(=O)c2cccc3nonc23)C1` (stereo unspecified), for which the cell number change was -2.04%.

On to `COc1cc2nc(SCc3c(C)noc3C)n(CCC3=CCCCC3)c(=O)c2cc1OC`, for which the cell number change is -32.1%. The AC50 under setting [2] was 5.8 µM [falling, full curve]. The AC50 under setting [1] was 5.17 µM [falling, full curve, poor fit].

Turning to `COc1cc2c(cc1OC)C(c1ccc(N(C)C)cc1)CC(=O)N2` (stereo unspecified), the cell number change came out at 1.59%.

As to `CC(=O)N1CCN(C(=O)c2cc(C)nc3ccccc23)CC1`, the cell number change came out at 5.54%. In addition, the AC50 under setting [1] is 11.6 µM [falling, partial curve].

Regarding `CCOc1cc(N2CCOCC2)c(OCC)cc1NC(=O)C1CC(=O)N(c2ccccc2OCC)C1` (stereo unspecified), the cell number change turned out to be 45.6%. Further, the concentration at half-maximal activity (AC50) under setting [2] was 29.1 µM [rising, single point]. Also, under setting [1], the concentration at half-maximal activity (AC50) was 29.1 µM [rising, single point].

On to `O=C(Nc1nccs1)C1Cc2ccccc2CN1S(=O)(=O)c1ccc(F)cc1` (stereo unspecified), for which the cell number change was -9.21%. Besides, the AC50 under setting [1] is 29.1 µM [falling, single point].

`CCn1cc(Br)c(C(=O)NC(C)c2ccccc2)n1` (stereo unspecified): the cell number change was 0.0638%. Further, under setting [1], the half-maximal activity concentration (AC50) was 0.58 µM [rising, full curve].

For the compound `O=C(O)CCCC(=O)Nc1cccc(C(F)(F)F)c1`, the cell number change is -17%. Moreover, the AC50 under setting [1] is 29.1 µM [falling, single point].

On to `O=C(OCc1cc([N+](=O)[O-])cc2c1OCOC2)c1cccnc1SC(F)F`, for which the cell number change was -50%. The AC50 under setting [2] is 0.517 µM [falling, full curve].

Take `CCN(CC)c1ccc(/C=N/N2CCN(Cc3ccc(Cl)cc3)CC2)c(O)c1`: under setting [1], the concentration at half-maximal activity (AC50) is 6.51 µM [falling, single point].

Take `CCCc1nn2c(=O)cc(CSCC(=O)Nc3cccc(OC)c3)nc2s1`: the cell number change is -0.298%.

For `CCC(=O)Nc1cccc(-c2nnc(SCC(=O)NCc3ccco3)n2C)c1`, the cell number change was 6.9%.

In the case of `CN(C)CCN(C(=O)CN1C(=O)c2ccccc2C1=O)c1nc2cc3c(cc2s1)OCCO3`, the cell number change was -45.4%. Also, the AC50 under setting [2] is 3.26 µM [falling, full curve].

On to `CCN(CC(=O)Nc1ccc2c(c1)OCCO2)c1ccc(S(=O)(=O)N2CCOCC2)cn1`, for which the cell number change worked out at 4.91%. For the same compound, under setting [1], the half-maximal activity concentration (AC50) was 0.00461 µM [rising, full curve, poor fit].

As to `Cc1ccccc1NS(=O)(=O)c1cc(S(C)(=O)=O)ccc1C`, the cell number change amounted to 83.3%. Also, the concentration at half-maximal activity (AC50) under setting [2] was 13 µM [rising, partial curve].

For the compound `CC(/C=C/c1ccco1)=N/NC(=O)c1ccc(C)nc1`, the cell number change is -11.2%. The concentration at half-maximal activity (AC50) under setting [1] is 4.61 µM [falling, single point].

Regarding `Cc1ccc(N(CC(=O)N=Nc2c(O)[nH]c3ccccc23)S(C)(=O)=O)c(C)c1`, the cell number change was -0.107%. For the same compound, under setting [2], the AC50 is 2.31 µM [falling, partial curve].

As to `Cc1ccc(S(=O)(=O)N2CCC(C(=O)OCCOc3cccc(C)c3)CC2)cc1`, the cell number change was -0.688%. In addition, the AC50 under setting [1] is 2.06 µM [falling, partial curve, poor fit].

With `N#CCCn1cc(C(=O)Nc2ccccc2Br)c(-c2cc3ccccc3o2)n1`, the cell number change was -29.2%. For the same compound, the half-maximal activity concentration (AC50) under setting [1] was 29.1 µM [falling, single point].

As for `O=C(NNC(=O)C12CC3CC(CC(O)(C3)C1)C2)c1csc(N2CCOCC2)n1`, the cell number change amounted to 31.4%. In addition, under setting [2], the half-maximal activity concentration (AC50) was 8.2 µM [rising, partial curve, poor fit].

On to `CC[N+](CC)(CCO)CCCN1C(=O)C2CC=C(Cl)CC2C1=O` (stereo unspecified), for which the cell number change turned out to be 2.13%. Besides, the concentration at half-maximal activity (AC50) under setting [1] is 20.6 µM [rising, single point].

In the case of `CC1Cc2ccccc2N1C(=O)c1cccnc1` (stereo unspecified), the AC50 under setting [2] is 0.0731 µM [falling, full curve, poor fit] and the AC50 under setting [1] was 0.116 µM [falling, full curve, poor fit].

Take `COc1ccccc1N1CCN(CC(=O)N(CC(C)C)c2c(N)n(CC(C)C)c(=O)[nH]c2=O)CC1`: the cell number change is -24.1%. Further, the AC50 under setting [1] was 29.1 µM [falling, single point].

On to `CCCc1cc(=O)[nH]c(SCC(=O)c2cc(C)n(C)c2C)n1`, for which the cell number change amounted to 2.61%. The AC50 under setting [1] is 2.91 µM [falling, single point].

As for `Cc1nc2sccn2c(=O)c1CCN1CCC(=C(c2ccc(F)cc2)c2ccc(F)cc2)CC1`, the cell number change is -57.2%. In addition, under setting [2], the AC50 is 32.6 µM [falling, single point]. Further, the AC50 under setting [1] is 5.8 µM [rising, partial curve].

As to `CSc1ncccc1C(=O)OCC(=O)N(CC(C)C)c1c(N)n(Cc2ccccc2)c(=O)[nH]c1=O`, the cell number change was -41%. Under setting [2], the concentration at half-maximal activity (AC50) is 29.1 µM [falling, single point].

For the compound `CCCCCNC(=O)CCCCn1c(=O)[nH]c2cc(OCC)c(OCC)cc2c1=O`, the cell number change is -10.7%. In addition, the concentration at half-maximal activity (AC50) under setting [1] was 0.58 µM [falling, full curve].

Take `Cc1ccc(-c2nc(NC(=O)c3ccc(S(=O)(=O)N(CCC#N)CCC#N)cc3)sc2-c2ccccc2)cc1`: the cell number change was 2.57%.

Regarding `CCN(CC)S(=O)(=O)c1ccc(C)c(NC(=O)CSc2nc3ccc(C)cc3[nH]2)c1`, the cell number change was -83.3%. Moreover, under setting [2], the AC50 is 29.1 µM [falling, partial curve, poor fit].

Regarding `COc1ccc(C(C#N)Nc2ccccc2OC)cc1` (stereo unspecified), the cell number change is -42.1%. For the same compound, the concentration at half-maximal activity (AC50) under setting [2] was 1.64 µM [falling, partial curve, poor fit]. For the same compound, the concentration at half-maximal activity (AC50) under setting [1] is 0.00517 µM [falling, full curve, poor fit].

For `OCC1CCCCN1C(=S)Nc1cccc(Cl)c1` (stereo unspecified), the cell number change is 23.7%. Also, the half-maximal activity concentration (AC50) under setting [2] was 2.91 µM [falling, single point].

Turning to `O=C(Cn1nc(-c2ccccc2)ccc1=O)NCC1CCCO1` (stereo unspecified), the cell number change worked out at 17.1%. In addition, under setting [1], the AC50 was 29.1 µM [rising, single point].

On to `O=C(Cc1ccccc1F)Nc1nc(-c2cccs2)cs1`, for which the cell number change is -7.75%. Moreover, under setting [1], the AC50 was 16.4 µM [rising, partial curve].

In the case of `CCSC(=O)CCCCCCCCCCCO`, the cell number change was -39.5%. In addition, the AC50 under setting [2] was 25.9 µM [falling, partial curve]. Besides, the AC50 under setting [1] was 18.4 µM [falling, single point].

On to `COc1cc(/C=N/n2c(-c3ccccc3)n[nH]c2=S)cc(OC)c1OC`, for which the cell number change was -22.7%. Also, the concentration at half-maximal activity (AC50) under setting [1] is 32.6 µM [falling, single point].

Regarding `CC1(C)CC(=O)C/C(=N/Nc2nc3ccccc3s2)C1`, the cell number change was -0.977%. In addition, under setting [1], the AC50 was 3.26 µM [falling, single point].

As to `Cc1ccc(S(=O)(=O)N(C)C)cc1NC(=S)N1CCc2ccccc21`, the cell number change turned out to be 34%. Under setting [2], the AC50 was 0.146 µM [rising, full curve, poor fit].

For the compound `COc1ccccc1N1CCN(CCNC(=O)Nc2cccc(C)c2C)CC1`, the AC50 under setting [2] was 0.58 µM [rising, single point] and the AC50 under setting [1] is 6.51 µM [rising, single point].
